Results on 1 substance are retold here after article PMC12669696.

Amino acid sequences for entries named in this document (tags omitted). Residues count along the entry.
UniProt P36894, residues 24-532: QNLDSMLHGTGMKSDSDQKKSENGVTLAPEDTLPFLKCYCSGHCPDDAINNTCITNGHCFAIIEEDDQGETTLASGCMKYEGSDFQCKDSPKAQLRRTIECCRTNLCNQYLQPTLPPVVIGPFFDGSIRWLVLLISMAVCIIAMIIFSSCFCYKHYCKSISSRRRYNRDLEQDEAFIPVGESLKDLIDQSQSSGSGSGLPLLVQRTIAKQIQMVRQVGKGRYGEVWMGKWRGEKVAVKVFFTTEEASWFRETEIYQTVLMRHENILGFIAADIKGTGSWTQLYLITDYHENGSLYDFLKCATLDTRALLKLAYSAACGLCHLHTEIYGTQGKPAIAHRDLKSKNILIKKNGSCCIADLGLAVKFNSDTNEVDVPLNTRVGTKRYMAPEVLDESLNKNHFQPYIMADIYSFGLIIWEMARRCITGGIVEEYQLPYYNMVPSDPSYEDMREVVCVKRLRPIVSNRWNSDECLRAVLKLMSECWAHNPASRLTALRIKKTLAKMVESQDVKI
UniProt Q86VR2: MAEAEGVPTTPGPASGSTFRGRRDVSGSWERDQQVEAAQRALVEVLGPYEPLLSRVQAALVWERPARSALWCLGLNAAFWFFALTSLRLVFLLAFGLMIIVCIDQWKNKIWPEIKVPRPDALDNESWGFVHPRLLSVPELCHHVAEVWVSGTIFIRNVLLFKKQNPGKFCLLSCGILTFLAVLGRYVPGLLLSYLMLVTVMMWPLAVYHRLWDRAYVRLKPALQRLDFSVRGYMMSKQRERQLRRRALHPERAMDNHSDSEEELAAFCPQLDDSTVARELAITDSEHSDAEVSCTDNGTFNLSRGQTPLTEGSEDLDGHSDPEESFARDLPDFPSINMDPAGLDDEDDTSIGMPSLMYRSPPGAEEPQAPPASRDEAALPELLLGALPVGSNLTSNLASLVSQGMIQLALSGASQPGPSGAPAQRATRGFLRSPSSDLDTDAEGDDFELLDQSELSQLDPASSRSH

No constants are given. Whether binding was seen depends on the method and setting. Binding seen in cells or lysates may run through a third protein. These calls come from enrichment with a bait or labelling near it, and not all partners need be listed.

This test concerns the target BMPR1A (bait of the immunoprecipitation-coupled mass spectrometry screen) (UniProt P36894). Nature of the test: affinity purification with mass spectrometry; protein-protein interaction screen, BMPR1A as a bait in immunoprecipitation-coupled mass spectrometry.

For “FAM134C (hit of the immunoprecipitation-coupled mass spectrometry screen) (from UniProt Q86VR2 1-466)”, the binding result is “binds”.
